Test results published in patent publication US11717471B2, “Hydrogel microcapsules” (ISP Investments LLC, priority 2010, dated 2023).
Some results were stated once for a whole list of compounds, not compound by compound.

Assay: Solubility of amine monomers of Formula I in water
Type: physicochemical
Details: estimated from Table 2
Excerpt: The insolubility point was reached when a distinct two separate layers was observed.

Compound | solubility in water
C=C(C)C(=O)OCCN(CC)CC [DEAEMA, diethylaminoethyl methacrylate] | less than 0.2 g/100 g water
C=C(C)C(=O)OCCN(C(C)C)C(C)C [DPAEMA, Diisopropylaminoethyl methacrylate] | less than 0.2 g/100 g water
